According to US20070092577A1, “Dietary calcium for reducing the production of reactive oxygen species” (University of Tennessee Research Foundation, priority 2005, published 2007):
At least one structure is not confirmed: it was looked up by name or label, or the drawing left a doubt.

Experiments:
[1] = test system: TNFα; assay: TNFα expression in differentiated 3T3-L1 adipocytes; assay type: cell-based, mouse; settings: nifedipine 10 μmol/L plus 10 nmol/L 1α, 25-(OH)2-D3, 48 h; p<0.001
Procedure: 3T3-L1 pre-adipocytes were incubated at a density of 8000 cells/cm^2 (10 cm^2 dish) and grown in Dulbecco's modified Eagle's medium (DMEM) containing 10% FBS and antibiotics (adipocyte medium) at 37° C. in 5% CO2 in air. Confluent pre-adipocytes were induced to differentiate with a standard differentiation medium consisting of DMEM-F10 (1:1, vol/vol) medium supplemented with 1% fetal bovine serum (FBS), 1 μM dexamethasone, isobutylmethylxanthine (IBMX) (0.5 mM) and antibiotics (1% Penicillin-Streptomycin). Pre-adipocytes were maintained in this differentiation medium for 3 days and subsequently cultured in adipocyte medium. Cultures were re-fed every 2-3 days to allow 90% cells to reach fully differentiation before conducting chemical treatment. […] Cell viability was measured via trypan blue exclusion. Adipocyte and muscle 18s, TNFα, IL-6, IL-8, IL-15 and adiponectin were quantitatively measured using a smart cycler real-time PCR system (Cepheid, Sunnyvale, Calif.) with a TaqMan 1000 Core Reagent Kit (Applied Biosystems, Branchburg, N.J.). […] Reactions of quantitative RT-PCR for standards and unknown samples were also performed according to the instructions of Smart Cycler System (Cepheid, Sunnyvale, Calif.) and TaqMan Real Time PCR Core Kit (Applied Biosystems, Branchburg, N.J.). The mRNA quantitation for each sample was further normalized using the corresponding 18s quantitation.

[2] = test system: NADPH oxidase; assay: NADPH oxidase expression in 3T3-L1 adipocytes; assay type: cell-based, murine; settings: added to glucose 30 mmol/L, 48 hours; nifedipine 10 μmol/L
Procedure: 3T3-L1 preadipocytes were incubated at a density of 8000 cells/cm^2 (10 cm^2 dish) and grown in Dulbecco's modified Eagle's medium (DMEM) containing 10% FBS and antibiotics (adipocyte medium) at 37° C. in 5% CO2 in air. Confluent preadipocytes were induced to differentiate with a standard differentiation medium consisting of DMEM-F 10 (1:1, vol/vol) medium supplemented with 1% FBS, 1 μM dexamethasone, IBMX (0.5 mM) and antibiotics (1% Penicillin-Streptomycin). Preadipocytes were maintained in this differentiation medium for 3 days and subsequently cultured in adipocyte medium. Cultures were re-fed every 2-3 days to allow 90% of cells to reach full differentiation before conducting chemical treatment. Chemicals were freshly diluted in adipocyte medium before treatment. […] Cell viability was measured via trypan blue exclusion. Adipocyte 18s, cyclin A, NADPH oxidase, and UCP2 were quantitatively measured using a Smart Cycler Real Time PCR System (Cepheid, Sunnyvale, Calif.) with a TaqMan 1000 Core Reagent Kit (Applied Biosystems, Branchburg, N.J.). […] Reactions of quantitative RT-PCR for standards and unknown samples were also performed according to the instructions of Smart Cycler System (Cepheid, Sunnyvale, Calif.) and TaqMan Real Time PCR Core Kit (Applied Biosystems, Branchburg, N.J.). The mRNA quantitation for each sample was further normalized using the corresponding 18s quantitation.

[3] = test system: MIF; assay: MIF expression in mouse (3T3-L1) adipocytes; assay type: cell-based; settings: nifedipine 10 μmol/L added to calcitriol, 48 hours
Procedure: (§1) RAW 264 macrophages and 3T3-L1 preadipocytes (American Type Culture Collection) were incubated at a density of 8000 cells/cm2 (10 cm2 dish) and grown in Dulbecco's modified Eagle's medium (DMEM) containing 10% FBS and antibiotics (adipocyte medium) at 37° C. in 5% CO2 in air. Confluent 3T3-L1 preadipocytes were induced to differentiate with a standard differentiation medium consisting of DMEM-F10 (1:1, vol/vol) medium supplemented with 1% FBS, 1 μM dexamethasone, IBMX (0.5 mM) and antibiotics (1% Penicillin-Streptomycin). Preadipocytes were maintained in this differentiation medium for 3 days and subsequently cultured in adipocyte medium. […]
Cells were washed with fresh adipocyte medium, re-fed with medium containing the indicated treatments, and incubated at 37° C. in 5% CO2 for 48 hours before analysis. Cell viability was measured via trypan blue exclusion.
Adipocyte and muscle 18s, CD14, TNFα, MIP, M-CSF, IL-6 and MCP-1 were quantitatively measured using a Smart Cycler Real Time PCR System (Cepheid, Sunnyvale, Calif.) with a TaqMan 1000 Core Reagent Kit (Applied Biosystems, Branchburg, N.J.). […] Reactions of quantitative RT-PCR for standards and unknown samples were also performed according to the instructions of Smart Cycler System (Cepheid, Sunnyvale, Calif.) and TaqMan Real Time PCR Core Kit (Applied Biosystems, Branchburg, N.J.). […]

[4] = test system: IL-6; assay: IL-6 expression in RAW 264 macrophages; assay type: cell-based; settings: added to calcitriol; macrophages cultured alone
Procedure: as §1
Human adipocytes (Zen-Bio, Inc.), 3T3-L1 adipocytes, RAW264 macrophages were obtained and co-cultured by using transwell inserts with 0.4 μm porous membranes (Corning) to separate adipocytes and macrophages. All data are expressed as mean±SEM. Data were evaluated for statistical significance by analysis of one-way or two-way variance (ANOVA; means with different letter differ, p<0.05).
Adipocyte and muscle 18s, CD14, TNFα, MIP, M-CSF, IL-6 and MCP-1 were quantitatively measured using a Smart Cycler Real Time PCR System (Cepheid, Sunnyvale, Calif.) with a TaqMan 1000 Core Reagent Kit (Applied Biosystems, Branchburg, N.J.). […] The mRNA quantitation for each sample was further normalized using the corresponding 18s quantitation.

With `COC(=O)C1=C(C)NC(C)=C(C(=O)OC)C1c1ccccc1[N+](=O)[O-]` [nifedipine] the “effect on 1α, 25-(OH)2-D3 stimulated TNFα expression” value [1] was “completely blocked”, the “effect on NADPH oxidase expression” value [2] was “suppressed” and the “effect on calcitriol increased MIF expression” value [3] was “reversed”. The “effect on calcitriol stimulated IL-6 expression” value [4] was “blocked”.
